{"source": "patent US20260062414A1", "about": "“NOVEL COCRYSTALS OF METHYLXANTHINES, THEIR POLYMORPHS AND PROCESS THEREOF” (FERTIS INDIA PVT LTD, priority 2022, published 2026)", "assay": "Debittering studies: sensorial taste testing by eight panelists (preference / non-preference for consumption)", "format": "in vivo, human", "details": "preference (like) or non-preference (dislike) for consumption", "note": "Some results come without the dose or concentration used."}
{"smiles": "Cn1c(=O)c2[nH]cnc2n(C)c1=O.Oc1ccc(/C=C/c2cc(O)cc(O)c2)cc1", "note": "[TP:RS, Theophylline: Resveratrol (1:1) Cocrystal]", "values": [{"measurement": "Preference", "setting": "Panelist-1", "result": "Yes"}, {"measurement": "Preference", "setting": "Panelist-2", "result": "Yes"}, {"measurement": "Preference", "setting": "Panelist-3", "result": "Yes"}, {"measurement": "Preference", "setting": "Panelist-4", "result": "Yes"}, {"measurement": "Preference", "setting": "Panelist-5", "result": "Yes"}, {"measurement": "Preference", "setting": "Panelist-6", "result": "Yes"}, {"measurement": "Preference", "setting": "Panelist-7", "result": "Yes"}, {"measurement": "Preference", "setting": "Panelist-8", "result": "Yes"}]}
{"smiles": "Cn1c(=O)c2c(n(C)c1=O)n(C)c(=O)n2C", "note": "[TC, Theacrine, reference compound]", "values": [{"measurement": "Preference", "setting": "Panelist-1", "result": "No"}, {"measurement": "Preference", "setting": "Panelist-2", "result": "No"}, {"measurement": "Preference", "setting": "Panelist-3", "result": "No"}, {"measurement": "Preference", "setting": "Panelist-4", "result": "No"}, {"measurement": "Preference", "setting": "Panelist-5", "result": "No"}, {"measurement": "Preference", "setting": "Panelist-6", "result": "No"}, {"measurement": "Preference", "setting": "Panelist-7", "result": "No"}, {"measurement": "Preference", "setting": "Panelist-8", "result": "No"}]}
{"smiles": "Cn1cnc2c1c(=O)[nH]c(=O)n2C", "note": "[TB, Theobromine, reference compound]", "values": [{"measurement": "Preference", "setting": "Panelist-1", "result": "No"}, {"measurement": "Preference", "setting": "Panelist-2", "result": "No"}, {"measurement": "Preference", "setting": "Panelist-3", "result": "No"}, {"measurement": "Preference", "setting": "Panelist-4", "result": "No"}, {"measurement": "Preference", "setting": "Panelist-5", "result": "No"}, {"measurement": "Preference", "setting": "Panelist-6", "result": "No"}, {"measurement": "Preference", "setting": "Panelist-7", "result": "No"}, {"measurement": "Preference", "setting": "Panelist-8", "result": "No"}]}
{"smiles": "Cn1c(=O)c2[nH]cnc2n(C)c1=O", "note": "[TP, Theophylline, reference compound]", "values": [{"measurement": "Preference", "setting": "Panelist-1", "result": "No"}, {"measurement": "Preference", "setting": "Panelist-2", "result": "No"}, {"measurement": "Preference", "setting": "Panelist-3", "result": "No"}, {"measurement": "Preference", "setting": "Panelist-4", "result": "No"}, {"measurement": "Preference", "setting": "Panelist-5", "result": "No"}, {"measurement": "Preference", "setting": "Panelist-6", "result": "No"}, {"measurement": "Preference", "setting": "Panelist-7", "result": "No"}, {"measurement": "Preference", "setting": "Panelist-8", "result": "No"}]}
{"smiles": "Cn1c(=O)c2c(ncn2C)n(C)c1=O", "note": "[CA, Caffeine, reference compound]", "values": [{"measurement": "Preference", "setting": "Panelist-1", "result": "No"}, {"measurement": "Preference", "setting": "Panelist-2", "result": "No"}, {"measurement": "Preference", "setting": "Panelist-3", "result": "No"}, {"measurement": "Preference", "setting": "Panelist-4", "result": "No"}, {"measurement": "Preference", "setting": "Panelist-5", "result": "No"}, {"measurement": "Preference", "setting": "Panelist-6", "result": "No"}, {"measurement": "Preference", "setting": "Panelist-7", "result": "No"}, {"measurement": "Preference", "setting": "Panelist-8", "result": "No"}]}
{"smiles": "COc1cc(/C=C/c2ccc(O)cc2)cc(OC)c1.COc1nc2c(c(=O)n1C)n(C)c(=O)n2C", "note": "[ML:PB, Methylliberine: Pterostilbene]", "values": [{"measurement": "Preference", "setting": "Panelist-1", "result": "Yes"}, {"measurement": "Preference", "setting": "Panelist-2", "result": "Yes"}, {"measurement": "Preference", "setting": "Panelist-3", "result": "Yes"}, {"measurement": "Preference", "setting": "Panelist-4", "result": "Yes"}, {"measurement": "Preference", "setting": "Panelist-5", "result": "Yes"}, {"measurement": "Preference", "setting": "Panelist-6", "result": "Yes"}, {"measurement": "Preference", "setting": "Panelist-7", "result": "Yes"}, {"measurement": "Preference", "setting": "Panelist-8", "result": "Yes"}]}
{"smiles": "COc1cc(/C=C/c2ccc(O)cc2)cc(OC)c1.Cn1c(=O)[nH]c2ncn(C)c2c1=O", "note": "[PX:PB, Paraxanthine: Pterostilbene (1:1) Cocrystal]", "values": [{"measurement": "Preference", "setting": "Panelist-1", "result": "Yes"}, {"measurement": "Preference", "setting": "Panelist-2", "result": "Yes"}, {"measurement": "Preference", "setting": "Panelist-3", "result": "Yes"}, {"measurement": "Preference", "setting": "Panelist-4", "result": "Yes"}, {"measurement": "Preference", "setting": "Panelist-5", "result": "Yes"}, {"measurement": "Preference", "setting": "Panelist-6", "result": "Yes"}, {"measurement": "Preference", "setting": "Panelist-7", "result": "Yes"}, {"measurement": "Preference", "setting": "Panelist-8", "result": "Yes"}]}
{"smiles": "COc1cc(/C=C/c2ccc(O)cc2)cc(OC)c1.Cn1c(=O)c2c(n(C)c1=O)n(C)c(=O)n2C", "note": "[TC:PB, Theacrine: Pterostilbene]", "values": [{"measurement": "Preference", "setting": "Panelist-1", "result": "Yes"}, {"measurement": "Preference", "setting": "Panelist-2", "result": "Yes"}, {"measurement": "Preference", "setting": "Panelist-3", "result": "Yes"}, {"measurement": "Preference", "setting": "Panelist-4", "result": "Yes"}, {"measurement": "Preference", "setting": "Panelist-5", "result": "Yes"}, {"measurement": "Preference", "setting": "Panelist-6", "result": "Yes"}, {"measurement": "Preference", "setting": "Panelist-7", "result": "Yes"}, {"measurement": "Preference", "setting": "Panelist-8", "result": "Yes"}]}
{"smiles": "Cn1c(=O)[nH]c2ncn(C)c2c1=O", "note": "[PX, Paraxanthine, reference compound]", "values": [{"measurement": "Preference", "setting": "Panelist-1", "result": "No"}, {"measurement": "Preference", "setting": "Panelist-2", "result": "No"}, {"measurement": "Preference", "setting": "Panelist-3", "result": "No"}, {"measurement": "Preference", "setting": "Panelist-4", "result": "No"}, {"measurement": "Preference", "setting": "Panelist-5", "result": "No"}, {"measurement": "Preference", "setting": "Panelist-6", "result": "No"}, {"measurement": "Preference", "setting": "Panelist-7", "result": "No"}, {"measurement": "Preference", "setting": "Panelist-8", "result": "No"}]}
{"smiles": "COc1nc2c(c(=O)n1C)n(C)c(=O)n2C", "note": "[ML, Methylliberine, reference compound]", "values": [{"measurement": "Preference", "setting": "Panelist-1", "result": "No"}, {"measurement": "Preference", "setting": "Panelist-2", "result": "No"}, {"measurement": "Preference", "setting": "Panelist-3", "result": "No"}, {"measurement": "Preference", "setting": "Panelist-4", "result": "No"}, {"measurement": "Preference", "setting": "Panelist-5", "result": "No"}, {"measurement": "Preference", "setting": "Panelist-6", "result": "No"}, {"measurement": "Preference", "setting": "Panelist-7", "result": "No"}, {"measurement": "Preference", "setting": "Panelist-8", "result": "No"}]}
{"smiles": "COc1cc(/C=C/c2ccc(O)cc2)cc(OC)c1.Cn1c(=O)c2c(ncn2C)n(C)c1=O", "note": "[CA:PB, Caffeine: Pterostilbene]", "values": [{"measurement": "Preference", "setting": "Panelist-1", "result": "Yes"}, {"measurement": "Preference", "setting": "Panelist-2", "result": "Yes"}, {"measurement": "Preference", "setting": "Panelist-3", "result": "Yes"}, {"measurement": "Preference", "setting": "Panelist-4", "result": "Yes"}, {"measurement": "Preference", "setting": "Panelist-5", "result": "Yes"}, {"measurement": "Preference", "setting": "Panelist-6", "result": "Yes"}, {"measurement": "Preference", "setting": "Panelist-7", "result": "Yes"}, {"measurement": "Preference", "setting": "Panelist-8", "result": "Yes"}]}
{"smiles": "COc1cc(/C=C/c2ccc(O)cc2)cc(OC)c1.Cn1cnc2c1c(=O)[nH]c(=O)n2C", "note": "[TB:PB, Theobromine: Pterostilbene (1:1) Cocrystal]", "values": [{"measurement": "Preference", "setting": "Panelist-1", "result": "Yes"}, {"measurement": "Preference", "setting": "Panelist-2", "result": "Yes"}, {"measurement": "Preference", "setting": "Panelist-3", "result": "Yes"}, {"measurement": "Preference", "setting": "Panelist-4", "result": "Yes"}, {"measurement": "Preference", "setting": "Panelist-5", "result": "Yes"}, {"measurement": "Preference", "setting": "Panelist-6", "result": "Yes"}, {"measurement": "Preference", "setting": "Panelist-7", "result": "Yes"}, {"measurement": "Preference", "setting": "Panelist-8", "result": "Yes"}]}
